# According to article PMC7819943, “Rice protein-binding microarrays: a tool to detect cis-acting elements near promoter regions in rice”:
# Protein sequences, listed by entry. Tags and fused reporters are not part of them.
# UniProt Q0JBA9, entry or part of it: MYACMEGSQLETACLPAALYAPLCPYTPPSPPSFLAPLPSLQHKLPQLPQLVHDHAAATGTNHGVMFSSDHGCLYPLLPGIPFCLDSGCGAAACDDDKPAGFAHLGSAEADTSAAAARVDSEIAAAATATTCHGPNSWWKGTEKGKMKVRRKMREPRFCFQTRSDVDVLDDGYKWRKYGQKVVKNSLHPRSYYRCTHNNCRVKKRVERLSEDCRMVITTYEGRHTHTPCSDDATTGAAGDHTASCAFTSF
# Some of the results follow.
# Target: OsWRKY34 (Oryza sativa, UniProt Q0JBA9 1-250)
# Assay: protein-binding microarray (RPBM); PBS, 2% BSA, 51.3 ng/ul salmon testes DNA, 50 uM zinc acetate, 200 nM TF, 25 C, 1 h; high values mean tight binding
# Conditions: protein: recombinant; tags: N-terminal polyhistidine and DsRed monomer fusion (pET32a); label: CyDye5-dUTP incorporated in the synthesized complementary strand; 3' TTTTT single-stranded linker to array surface; dsDNA, one strand shown
# Outline: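 Binding signal here means per-feature fluorescence intensity in arbitrary units. The values were read on an Axon 4000B scanner after a custom Agilent array, double-stranded by primer extension with Cy5-dUTP, was incubated with 200 nM protein at 25 °C for 1 h in PBS with 2% BSA, salmon testes DNA and 50 µM zinc acetate, then washed. The proteins were transcription factors with an N-terminal polyhistidine tag and DsRed, expressed in E. coli BL21-CodonPlus and purified on Ni–NTA.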
row,Sequence,binding signal
1,TGCATTGACTTTCGGCGGCGCGTTGCAGATCCTGGTTCTTCGGAGTCACCTAGTGCAG,11500 fluorescence intensity (a.u.)
2,GTGTGCGTCTCTCTCTGTCTCACTCTCTGTGTGAGTGCGACGGAGTCACCTAGTGCAG,8980 fluorescence intensity (a.u.)
3,TTCCTCTTCTCTTCCGCGCCATTTCTTGATCCCCGTCATGCGGAGTCACCTAGTGCAG,8420 fluorescence intensity (a.u.)
4,GACCTCGTGCGCTCCCACCACCACCACCCCGCGGCTTCGCCGGAGTCACCTAGTGCAG,9110 fluorescence intensity (a.u.)
5,TGCACTCCACCGCACATAGACCGGACGTATGCTCTACACTCGGAGTCACCTAGTGCAG,9070 fluorescence intensity (a.u.)
6,CTACCACTGTCCGCCATTACATTACAAACCACACTGCGCGCGGAGTCACCTAGTGCAG,11400 fluorescence intensity (a.u.)
7,GACAATCCGACCTGTAATCCACCCGACTATTGTTGGTTGTCGGAGTCACCTAGTGCAG,8280 fluorescence intensity (a.u.)
8,ATCAATACGTGACTTGCTAGATTCTGTACTTTCCATCGTCCGGAGTCACCTAGTGCAG,10800 fluorescence intensity (a.u.)
9,TCAGTCAATTTCTCTCGTCAACTCCTCTGCCTCACTCTGCCGGAGTCACCTAGTGCAG,10500 fluorescence intensity (a.u.)
10,CGGGCGATTCTAGGGTTATGGTTAGGGTTTTTTTTATTTTCGGAGTCACCTAGTGCAG,14500 fluorescence intensity (a.u.)
11,TGCCTACACAGTACACACAGTGCGTTTCCATTTTGTTCTTCGGAGTCACCTAGTGCAG,9140 fluorescence intensity (a.u.)
12,CCTATATTTTGGTGGTGTTTTATGCCCTCACTATCATTTTCGGAGTCACCTAGTGCAG,10900 fluorescence intensity (a.u.)
13,TAGGATGTGAGTACGGGGTTGGCTTATTTTGGAATAGAGTCGGAGTCACCTAGTGCAG,12400 fluorescence intensity (a.u.)
14,GCTTTTGCGTCGGACCTGCCGCACCGCCACCTGCGATGACCGGAGTCACCTAGTGCAG,11900 fluorescence intensity (a.u.)
15,ACACCGCCCACTCTTGCAGAATTCTTCCTCTCCGCTTCTCCGGAGTCACCTAGTGCAG,8930 fluorescence intensity (a.u.)
16,CTAGCCAACTGCGCCACCACCCCATCGATGTCCAATGGTACGGAGTCACCTAGTGCAG,8120 fluorescence intensity (a.u.)
17,CCCTCCTCTCCGCGCGCGCCACCTGTCCATCCGCGCGGAGCGGAGTCACCTAGTGCAG,8970 fluorescence intensity (a.u.)
18,CTATTTTGCGATGTGTATTTTCCAAAACCGATTCCATAATCGGAGTCACCTAGTGCAG,8180 fluorescence intensity (a.u.)
19,GCCACGAAGCCATGGCGGCGCCGTCCTCCCTCGCGTCGTCCGGAGTCACCTAGTGCAG,8520 fluorescence intensity (a.u.)
20,GTTTGTCTTGATTTATTGCTAGGATTTGAATTTTTTTTGACGGAGTCACCTAGTGCAG,9340 fluorescence intensity (a.u.)
21,ATAGTTCACCTGTATATGCGTAAATCAATGGTTCAATGTTCGGAGTCACCTAGTGCAG,9110 fluorescence intensity (a.u.)

# A stretch from the list above, as a working copy:
row,Sequence,binding signal
5,TGCACTCCACCGCACATAGACCGGACGTATGCTCTACACTCGGAGTCACCTAGTGCAG,9070 fluorescence intensity (a.u.)
6,CTACCACTGTCCGCCATTACATTACAAACCACACTGCGCGCGGAGTCACCTAGTGCAG,11400 fluorescence intensity (a.u.)

# The list goes on.

row,Sequence,binding signal
1,CGTCGACGACGTCTCGATCGATCGGTGGTGGTGGTGGTGGCGGAGTCACCTAGTGCAG,8540 fluorescence intensity (a.u.)
2,CACGTCACCTGCATATGCCCTTCTTCCTCGCCGGCCACACCGGAGTCACCTAGTGCAG,11000 fluorescence intensity (a.u.)
3,GCGCCAGTCCAACGCCGGTCAGGAATTATATCTCTCTCTTCGGAGTCACCTAGTGCAG,9930 fluorescence intensity (a.u.)
4,TAGATATGGTTTTGCTGTTAGGGGACGATTTTTTAACTCGCGGAGTCACCTAGTGCAG,10400 fluorescence intensity (a.u.)
5,CACCGTTGATTTTTTTAAATATGTTTGACCGTTCGTTTTACGGAGTCACCTAGTGCAG,12000 fluorescence intensity (a.u.)
6,AGTGGATGAGTTTGAGTTTTAGGATTTAGTGGGGTATTATCGGAGTCACCTAGTGCAG,15100 fluorescence intensity (a.u.)
7,ATTTTCGTGTTATTTTTGGTTCTGGTTGATTGATCGATTTCGGAGTCACCTAGTGCAG,12900 fluorescence intensity (a.u.)
8,TCTGTTTTTGCTCTGTTTTTCTATGTTGTCGTATTTTCGTCGGAGTCACCTAGTGCAG,15300 fluorescence intensity (a.u.)
9,GCTGCTCACATTCTCATCATCGCATACACACACTTAACTTCGGAGTCACCTAGTGCAG,11500 fluorescence intensity (a.u.)
10,TCATTGTTCTCACTTCCTCGTCTTGAGCACTTGAGTCTCTCGGAGTCACCTAGTGCAG,8420 fluorescence intensity (a.u.)
11,ACATCCATCCACTCAACCCATTCTACCGTATTAAGCCAATCGGAGTCACCTAGTGCAG,8192 fluorescence intensity (a.u.)
12,CCTGTCCTACGTAGCATCACATATTCGTTGTTTTTTGTTTCGGAGTCACCTAGTGCAG,11300 fluorescence intensity (a.u.)
13,CATCAGTCGCTTAATAATGCGCTTTCCTTCACCGGATTATCGGAGTCACCTAGTGCAG,8310 fluorescence intensity (a.u.)
14,CTGCGTCGGTTCTGAGTTTGCTTCGTCTCCGGGCTCGCTGCGGAGTCACCTAGTGCAG,13700 fluorescence intensity (a.u.)
15,TGGTGTGATGTGTCGTGGGTTTAAGGGACAAATAAGAAAACGGAGTCACCTAGTGCAG,8710 fluorescence intensity (a.u.)
16,TAAGCGAAGCACTACTGTTCACTTTCAGGCCTCATAACTGCGGAGTCACCTAGTGCAG,8600 fluorescence intensity (a.u.)
17,CAACCACACCAAACGCAACCCGTTCCTACCAAGATTCTCTCGGAGTCACCTAGTGCAG,8940 fluorescence intensity (a.u.)
18,GTCGGTTTTTAAGTTCATTCGCTTTTGGAAATACAAATCCCGGAGTCACCTAGTGCAG,11100 fluorescence intensity (a.u.)
19,CGGTAGAAAGCCCACCACTCGCTCGCCAGTTCGTCGTCCTCGGAGTCACCTAGTGCAG,10500 fluorescence intensity (a.u.)
20,GTTGAGGTTAGCCTTCATTTTTTTTTCTTGTGGTATATATCGGAGTCACCTAGTGCAG,10000 fluorescence intensity (a.u.)
21,TCACAACCTTTCCTTGTGTATAGCCATATTTGCACATTTACGGAGTCACCTAGTGCAG,9220 fluorescence intensity (a.u.)
